Data on three compounds can be found in PubChem BioAssay (NCATS).

One may read the AC50 as the concentration giving half of the maximal activity seen.

Some of the results follow. Further columns of the screen follow, without active or inactive calls. Compounds called inactive in the main read-out are mostly missing here. Words in brackets tell the shape of the fitted curve; partial curves, single points and poor fits give uncertain potencies.

Assay [1] is described as follows: S16 Schwann cell PMP22 intronic element beta-lactamase assay (AID 624044). Particulars: S16 rat Schwann cells, PMP22 element beta-lactamase FRET, 24 h; measured here: 460 nm blue channel. Summed up:
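Rat S16 Schwann cells with beta-Lac driven by a PMP22 intronic element, compound-treated 24 h at 37 °C. LiveBLAzer FRET B/G read: 460 nm normalized to potassium clavulanate vs DMSO; 535 nm FRET as viability; concentration-effect curves classified.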

A short description of assay [2]: qHTS Assay for Inhibitors of PDE-IV (AID 607). Particulars: HEK293 ACTOne CNG channel cells, membrane potential fluorescence; measured here: parental cell counter-screen. Summed up:
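Live HEK293 cells with a modified cyclic nucleotide-gated (CNG) channel report intracellular cAMP via membrane-potential dye fluorescence (ex 535/em 590 nm). Endogenous PDE-IV was targeted. Compounds were tested at up to 22.9 uM final; RO 20-1724 100 uM served as control.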
Background: In qHTS, concentration-response curves come from the screen itself.

With `CC(C)=CC1C(C(=O)OCc2coc(Cc3ccccc3)c2)C1(C)C` (stereo not drawn), the AC50 in assay [1] was 12.6 µM [falling, single point].

As to `CCC(=O)O[C@@](Cc1ccccc1)(c1ccccc1)[C@@H](C)CN(C)C`, in assay [2], the AC50 was 6.31 µM [rising, partial curve, poor fit].

As to `C[C@@]12CC[C@H](O)C[C@@H]1CC[C@H]1[C@H]2C[C@@H](O)[C@]2(C)[C@@H](C3=CC(=O)OC3)CC[C@@]12O`, in assay [2], the AC50 is 0.501 µM [rising, partial curve, poor fit].
